The assay concerns the target dipeptidyl peptidase-IV (DPPIV) (Homo sapiens (Human), UniProt P27487). Nature of the assay: dipeptidyl peptidase-IV (DPPIV) assay. It counts as biochemical. The conditions noted are these: Table 10, first scaffold. The source says: In addition, the dipeptidyl peptidase-IV (DPPIV) assay herein was applied to investigate the DPPIV inhibitory activity of the prepared compounds as described above. The method of the DPPIV assay was described in Lin et al., 1998. Inhibition of dipeptidyl peptidase IV by fluoroolefin-containing N-peptidyl-O-hydroxylamine peptidomimetics. Proc. Natl. Acad. Sci. USA Vol. 95, pp. 14020-14024.

Protein sequences, listed by entry. Tags and fused reporters are not part of them.
UniProt P27487, whole entry: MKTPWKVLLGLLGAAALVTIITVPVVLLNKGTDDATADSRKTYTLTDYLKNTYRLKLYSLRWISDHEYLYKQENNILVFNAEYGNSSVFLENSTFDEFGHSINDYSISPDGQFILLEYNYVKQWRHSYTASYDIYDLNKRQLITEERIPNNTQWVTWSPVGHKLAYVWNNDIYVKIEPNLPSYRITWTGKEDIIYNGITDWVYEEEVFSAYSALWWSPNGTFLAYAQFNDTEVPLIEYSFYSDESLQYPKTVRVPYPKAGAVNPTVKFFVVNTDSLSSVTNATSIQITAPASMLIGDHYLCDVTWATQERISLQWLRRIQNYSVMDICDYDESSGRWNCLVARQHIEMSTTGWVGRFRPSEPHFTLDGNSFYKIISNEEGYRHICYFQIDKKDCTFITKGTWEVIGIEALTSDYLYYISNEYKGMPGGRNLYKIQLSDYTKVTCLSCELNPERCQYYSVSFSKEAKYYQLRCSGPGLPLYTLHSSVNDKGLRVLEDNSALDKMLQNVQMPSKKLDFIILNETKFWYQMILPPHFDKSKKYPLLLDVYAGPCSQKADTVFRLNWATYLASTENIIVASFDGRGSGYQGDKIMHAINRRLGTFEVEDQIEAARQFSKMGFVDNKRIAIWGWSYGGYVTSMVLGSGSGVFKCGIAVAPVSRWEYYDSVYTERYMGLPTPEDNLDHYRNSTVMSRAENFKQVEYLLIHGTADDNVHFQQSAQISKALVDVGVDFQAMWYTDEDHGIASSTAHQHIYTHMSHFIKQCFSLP

For part of its entries the source gives two or more results. They are shown here; other results are not. An entry can have further records. The values listed for one entry do not match, cause unknown; some may be repeats, others may stem from another dose, organism or construct than stated.

In the case of `CC(C)=CCOc1ccc(C2=C(CC(C)C)C(=O)N(C(Cc3ccccc3)C(=O)NC3CC3)C2=O)cc1` (centres unmarked), the “IC50 against DPPIV” value is > 100 μg/ml and 43 μg/ml.

For the compound `CC(C)=CCOc1ccc(C2=C(CC(C)C)C(=O)N(C(CC(C)C)C(=O)NC3CC3)C2=O)cc1` (centres unmarked) [Compound A1-6, N-Cyclopropyl-2-(3-isobutyl-4-(4-(3-methylbut-2-enyloxy)phenyl)-2,5-dioxo-2,5-dihydro-1H-pyrrol-1-yl)-4-methylpentanamide], the “IC50 against DPPIV” value is > 100 μg/ml and 50 μg/ml.

Source of the values: patent publication US9115083B2 (Simpson Biotech Co., Ltd, priority 2011, dated 2015).
